Reference: PMC7819943, “Rice protein-binding microarrays: a tool to detect cis-acting elements near promoter regions in rice”
Some of the results follow.

Protein sequences, listed by entry. Tags and fused reporters are not part of them.
UniProt Q0JBA9, entry or part of it: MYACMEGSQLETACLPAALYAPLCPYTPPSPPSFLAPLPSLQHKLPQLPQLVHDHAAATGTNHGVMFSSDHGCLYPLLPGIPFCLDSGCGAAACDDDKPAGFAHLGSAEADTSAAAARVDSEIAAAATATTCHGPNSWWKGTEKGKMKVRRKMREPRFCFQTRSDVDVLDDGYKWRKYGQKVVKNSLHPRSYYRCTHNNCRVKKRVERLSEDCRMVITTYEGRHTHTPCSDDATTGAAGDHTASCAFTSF

These sequences were tested against OsWRKY34 (Oryza sativa, UniProt Q0JBA9 1-250) (assay: protein-binding microarray (RPBM); PBS, 2% BSA, 51.3 ng/ul salmon testes DNA, 50 uM zinc acetate, 200 nM TF, 25 C, 1 h; high values mean tight binding). Settings: protein: recombinant; tags: N-terminal polyhistidine and DsRed monomer fusion (pET32a); label: CyDye5-dUTP incorporated in the synthesized complementary strand; 3' TTTTT single-stranded linker to array surface; dsDNA, one strand shown.
Summary of the method: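 Binding signal is defined as the fluorescence intensity of each feature in arbitrary units, read on an Axon 4000B scanner. Transcription factors with N-terminal polyhistidine and DsRed fusions came from E. coli BL21-CodonPlus and were purified on Ni–NTA. They were incubated at 200 nM for 1 h at 25 °C on a custom Agilent array that had been made double-stranded with Cy5-dUTP, with 50 µM zinc acetate present, and the array was washed.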

Sequence	binding signal
CTTGCTTACAGAGTTCCAGTTTCTCGTATTTCTGGTTTCTCGGAGTCACCTAGTGCAG	8780 fluorescence intensity (a.u.)
GTGCCGGCGCCCGACGACGTCGCCCTCATCCGCGGCATCCCGGAGTCACCTAGTGCAG	8050 fluorescence intensity (a.u.)
ATAACCCGCACCACCTCATCCGCCGCATCGATCCTCCCTCCGGAGTCACCTAGTGCAG	8930 fluorescence intensity (a.u.)
TGTGTGTTCTTGTTTCTCTTGTTAATTTCTTGAGATCCTGCGGAGTCACCTAGTGCAG	9690 fluorescence intensity (a.u.)
TCTCTCACCTTTTCTTCACTTTATGGGCATCATTTTCAGACGGAGTCACCTAGTGCAG	8780 fluorescence intensity (a.u.)
TTGCCATTGAAACAAAGTGTTCTGTTCTGGTGGATGCTTTCGGAGTCACCTAGTGCAG	8680 fluorescence intensity (a.u.)
TCGTTGACTTTTTTCTTAGTCAAATTTCTTTAAGTTTGACCGGAGTCACCTAGTGCAG	42400 fluorescence intensity (a.u.)
AAGTTCCTTCTTATTTCTAAGTTCAGTCGTATCCTCTTAACGGAGTCACCTAGTGCAG	8720 fluorescence intensity (a.u.)
TCCTTTCCTACATGTCGCCTTTGCCGTCGCCTCAACCACACGGAGTCACCTAGTGCAG	14200 fluorescence intensity (a.u.)
GCTTTATTTCTCTCTTGCTTTCTTTTCATCCCCAACCAGTCGGAGTCACCTAGTGCAG	8550 fluorescence intensity (a.u.)
ACTATACCTTTTTTTTAAGTCATTTAGTTTTTGCCAAAATCGGAGTCACCTAGTGCAG	8030 fluorescence intensity (a.u.)
GTATTGTGTGATGTCCACTGGAGTATAGCTGGGTGGGGTACGGAGTCACCTAGTGCAG	11300 fluorescence intensity (a.u.)
GACTTTTTTTTAAATTTTTTTTCGCTATATTTTTTGACGGCGGAGTCACCTAGTGCAG	8320 fluorescence intensity (a.u.)
GATTGTGATGGTCCGTTTTCACTTTTTTAGTCATCTACAACGGAGTCACCTAGTGCAG	10900 fluorescence intensity (a.u.)
GCCTCTCAGATATGTTCTTTGTTTGATTTATTTTTCTAATCGGAGTCACCTAGTGCAG	8030 fluorescence intensity (a.u.)
TCTCCCCATCCATCCTCACCCGCGCTGCCCATCACTCGCCCGGAGTCACCTAGTGCAG	8240 fluorescence intensity (a.u.)
AAATACCACTACTATTCGTCGTATCGGCTACATGCCACTGCGGAGTCACCTAGTGCAG	8160 fluorescence intensity (a.u.)
TTATATAAGCACGCTGCCTTCGCCATCTCCATTTCCACAACGGAGTCACCTAGTGCAG	8840 fluorescence intensity (a.u.)
GTCTCACTCTCCCAATCCGCCTCGGCCCGAGCGCGCGCGCCGGAGTCACCTAGTGCAG	9530 fluorescence intensity (a.u.)
GGTCAGGATATCTGGTTTTGTAGTTTAAGGCCACGGATTACGGAGTCACCTAGTGCAG	9010 fluorescence intensity (a.u.)
ATCCTCGGTAACTCTTCTTCGCGGCTATCGTGTTGGTCTCCGGAGTCACCTAGTGCAG	11200 fluorescence intensity (a.u.)

Looked up above.
ATAACCCGCACCACCTCATCCGCCGCATCGATCCTCCCTCCGGAGTCACCTAGTGCAG | binding signal: 8930 fluorescence intensity (a.u.)
ACTATACCTTTTTTTTAAGTCATTTAGTTTTTGCCAAAATCGGAGTCACCTAGTGCAG | binding signal: 8030 fluorescence intensity (a.u.)
GCTTTATTTCTCTCTTGCTTTCTTTTCATCCCCAACCAGTCGGAGTCACCTAGTGCAG | binding signal: 8550 fluorescence intensity (a.u.)

(list continues)

Sequence	binding signal
CCTGATCCTGCTGTATTAAGACATACGAGGCAAAGCTTTTCGGAGTCACCTAGTGCAG	9670 fluorescence intensity (a.u.)
GTTTTGACTTTGGTCAAAGTCAAACTAATTCAAGTTAGACCGGAGTCACCTAGTGCAG	17600 fluorescence intensity (a.u.)
GACCAGCGAACTGCAAGCAATCCCAGCCATTCTTTCATTCCGGAGTCACCTAGTGCAG	10400 fluorescence intensity (a.u.)
ATATGTATTAGTGTGTATGTGTTAAGGGGTATTTCTGTCTCGGAGTCACCTAGTGCAG	10700 fluorescence intensity (a.u.)
GTTGTTCTTATGGTCTTGCTTTGTTCCTTTCCATTTGGTCCGGAGTCACCTAGTGCAG	13000 fluorescence intensity (a.u.)
GAGGGAGGGAGGGAGGGAGGGCGTGTAGCGTAGTTGGTGTCGGAGTCACCTAGTGCAG	18800 fluorescence intensity (a.u.)
TCACGGCCCACTTCTCTTCGTCGGCCCAGTATCGTCCCTTCGGAGTCACCTAGTGCAG	8760 fluorescence intensity (a.u.)
AAAATACCGACATAATATTTGGATACACATCTATCTAGATCGGAGTCACCTAGTGCAG	8800 fluorescence intensity (a.u.)
GGGCTGGTTTGGCTTGGCTGTTACAAAGACAAAGAATGACCGGAGTCACCTAGTGCAG	16800 fluorescence intensity (a.u.)
GATACATAGAGTCATGCACCTACGACTCCACCACCACAACCGGAGTCACCTAGTGCAG	11600 fluorescence intensity (a.u.)
GGTGGGAGGGATCTAGGAAGGCTAGGGCAAGCGTCGATCTCGGAGTCACCTAGTGCAG	8110 fluorescence intensity (a.u.)
TGACCTCCGTTTTAGTCCACACTCTCTCGCAGCGGCGGAGCGGAGTCACCTAGTGCAG	9080 fluorescence intensity (a.u.)
GAGCACCACCTCCATAAACCCGGTCCACCCTGAACTCCACCGGAGTCACCTAGTGCAG	9750 fluorescence intensity (a.u.)
CCTGTATTCGGCACCCATTTTCCTAACATTTCTCTCGTTTCGGAGTCACCTAGTGCAG	8970 fluorescence intensity (a.u.)
CATGAGATGAGAGGCCTTTGATTGTTCAGTCATATTATTTCGGAGTCACCTAGTGCAG	9510 fluorescence intensity (a.u.)
ATTCTGTTTTCTACTATTCGCTAGTATACTGCTACTAGTTCGGAGTCACCTAGTGCAG	11500 fluorescence intensity (a.u.)
GGATTCGGAGGCGGGTGGGAGTGGGAGAGTGAGAGGGGCTCGGAGTCACCTAGTGCAG	16200 fluorescence intensity (a.u.)
CATACAGAGCTTGCCGCTGCCCATCACGTCGACCTACGCTCGGAGTCACCTAGTGCAG	8750 fluorescence intensity (a.u.)
GTTTCTGTCCATTGAGATATATTAGGTGATATTTTTGTGTCGGAGTCACCTAGTGCAG	8110 fluorescence intensity (a.u.)
ATTTGGTAGGGCTGGTTGGAGTACTTTTCATTGGGTGCCTCGGAGTCACCTAGTGCAG	11900 fluorescence intensity (a.u.)
GCCTGGTCCTGTCACAAGTTTTGTTTGCTGAATCTTATTACGGAGTCACCTAGTGCAG	12500 fluorescence intensity (a.u.)

Sequence	binding signal
CGAATAGGCTCGTGTTGCTTCCTTCTCTCTCACCTGCGCACGGAGTCACCTAGTGCAG	8120 fluorescence intensity (a.u.)
CACCCAAGACACCAGCACCCCGCGCGGCCCAGCAAGTTAACGGAGTCACCTAGTGCAG	9050 fluorescence intensity (a.u.)
GCCCATCACACAGCATCTGTAACTGTGCAGGTTTTAATTTCGGAGTCACCTAGTGCAG	9370 fluorescence intensity (a.u.)
ACTGTACAAATTTTTCACCTACCTCAACTTCTCATTCAATCGGAGTCACCTAGTGCAG	8350 fluorescence intensity (a.u.)
TCTCTGATCATCTTGGCGTTGATACCACTCATCGGCGTCACGGAGTCACCTAGTGCAG	10500 fluorescence intensity (a.u.)
AGATAAGGCTCATACAGGCATACATCACACTACTATTTGACGGAGTCACCTAGTGCAG	8210 fluorescence intensity (a.u.)
GTATGACTTCTCCGTTTTTATATTTGCACTAATTTTTTAACGGAGTCACCTAGTGCAG	11200 fluorescence intensity (a.u.)
ATCTGTCATCTCGTTCTTCTCACGTCAGGAATCTCCAGAGCGGAGTCACCTAGTGCAG	9400 fluorescence intensity (a.u.)
GCTTTCTGTGGTGCATTCTATATTTTTTATATATTATTATCGGAGTCACCTAGTGCAG	16400 fluorescence intensity (a.u.)
TCCCACAGATTATTTGCTTGCTACTTGGGGTTGTTATTTTCGGAGTCACCTAGTGCAG	8750 fluorescence intensity (a.u.)
TAGCTCTCGTCTCACCTAACCTAACATCGCCAGGTTTTTCCGGAGTCACCTAGTGCAG	9610 fluorescence intensity (a.u.)
CGCAGGGGTGGCAGCCATCTCTACATCCATCAGTTCGCGTCGGAGTCACCTAGTGCAG	8430 fluorescence intensity (a.u.)
CTGGATCACACCTTCTCTTCACCTTTTCTTCTCAAGCCAGCGGAGTCACCTAGTGCAG	9360 fluorescence intensity (a.u.)
CACTTCCTATCTCAAATACGACTGCTTCGTCGTAACCCTTCGGAGTCACCTAGTGCAG	8230 fluorescence intensity (a.u.)
GACTACAAAGCCCAGTGCATCACCATTCCTCAGAGTTGTCCGGAGTCACCTAGTGCAG	8260 fluorescence intensity (a.u.)
GTGTCGTGGTGGAAAGTTCCTTACAAGCGCCGCCTCTATCCGGAGTCACCTAGTGCAG	8220 fluorescence intensity (a.u.)
ATACCAGTCATTACCTTCAATTTAAATCTATTTTTTTTCTCGGAGTCACCTAGTGCAG	10200 fluorescence intensity (a.u.)
CCTAACCCCGACGACCCGCGCCCCACGAAACCCCTCCCCTCGGAGTCACCTAGTGCAG	10800 fluorescence intensity (a.u.)
GACTTACTTTATTGTCTACAGTACTTTAAGCACAACTTTTCGGAGTCACCTAGTGCAG	8360 fluorescence intensity (a.u.)
CCGCCGTCGCCACAACTCCGCCCGGCCTTCGCGCCAGTCTCGGAGTCACCTAGTGCAG	9440 fluorescence intensity (a.u.)
TCGATTGAGCTCTTTTTTTTTTCTTTTCTTCTACCTTTCACGGAGTCACCTAGTGCAG	11600 fluorescence intensity (a.u.)

Sequence	binding signal
CTCGACATCCACGTCGCTCGCCACCAACACTACCGACGTCCGGAGTCACCTAGTGCAG	8240 fluorescence intensity (a.u.)
AGTGGTGTTTGTATTGAAAAAGTAGTGTCTAATACTAGTTCGGAGTCACCTAGTGCAG	9550 fluorescence intensity (a.u.)
AAAGTTGACTTTTCAGCTTGGGAAAGTAATTCACATGATCCGGAGTCACCTAGTGCAG	13500 fluorescence intensity (a.u.)
CCTTCACCGCCTCCGCCTCTTTGACCTCCTCCTCCGCCATCGGAGTCACCTAGTGCAG	10400 fluorescence intensity (a.u.)
CATCCGATTCCTATGTATTTCTTGCGGTCTAATCAAACGACGGAGTCACCTAGTGCAG	10200 fluorescence intensity (a.u.)
GAGCGTGGCGGAGACCGGTGGGGAAGGAGGTGGGGCGGAGCGGAGTCACCTAGTGCAG	9880 fluorescence intensity (a.u.)
GTATAGGTTTCTCTGTTTTTTTTTTACTACCTCTATCCCACGGAGTCACCTAGTGCAG	11800 fluorescence intensity (a.u.)
ATATAGGGGTTGTTTGGTTGATGGTTAAGTTTATCACCTCCGGAGTCACCTAGTGCAG	10600 fluorescence intensity (a.u.)
CTCCGGTGGGTCGGGTCTGGGCGGGGTGCGCGTGGGGATGCGGAGTCACCTAGTGCAG	18200 fluorescence intensity (a.u.)
ATATGTGTGGGTTAAGAGAAGGCTGAAAAAAAACTTTATACGGAGTCACCTAGTGCAG	8320 fluorescence intensity (a.u.)
GCTATTGTACCTACTCTTAATCCCCTCTGATTAATTAATTCGGAGTCACCTAGTGCAG	8620 fluorescence intensity (a.u.)
GTTTTAGTGGGTTGTTTCGTTGACGTGGTGCTATGACCCGCGGAGTCACCTAGTGCAG	9160 fluorescence intensity (a.u.)
TTCAGAATATATGCACGCCGAACTGCGTCTTGTTCATTGACGGAGTCACCTAGTGCAG	8840 fluorescence intensity (a.u.)
CCACCCCATCGCGAGATCTCATCCGTCCATCTCTCTTCCTCGGAGTCACCTAGTGCAG	8690 fluorescence intensity (a.u.)
GAATTTCTTTTTCCGTCGTTTGTCTGGTCCACCATGAAACCGGAGTCACCTAGTGCAG	8260 fluorescence intensity (a.u.)
ATTATTGCTATTTGTCCGCACAATTTCTCCCTGTTTTTCGCGGAGTCACCTAGTGCAG	11800 fluorescence intensity (a.u.)
TGTGTAGTCATCTCCTTTTATGCCATCTGCAAAACAAGCCCGGAGTCACCTAGTGCAG	10700 fluorescence intensity (a.u.)
CTGGGCTATTCCTAACTAGGTCCAACCCCATGCAGCGACACGGAGTCACCTAGTGCAG	9120 fluorescence intensity (a.u.)
TCATTCCTTCTCTTTTTTTCTCGCTTTGTTTCTCCCGTCGCGGAGTCACCTAGTGCAG	9920 fluorescence intensity (a.u.)
GTGATACATTTTCGGACCATTTGGTAATTTCATTCAGACACGGAGTCACCTAGTGCAG	12100 fluorescence intensity (a.u.)
TTCTGGTGAGCTTCTTGTTTGTTTCTTGTATTTTTTTGTTCGGAGTCACCTAGTGCAG	9020 fluorescence intensity (a.u.)
